Results: PubChem BioAssay AID210 (DTP/NCI, 2004)
The list does not hold the whole screen: it gathers some chemical classes. Not every dose and run of a compound is shown. T/C is the treated group as % of the vehicle group. For survival time, the PubChem record calls one and a half times the control and up active, and a quarter to a half above the control has no call in these data; cut-offs in other NCI protocols can differ. Schedule codes are those of the source, taken here to give the interval after Q, in days (D) or hours (H), and the number of doses after X. Some entries show no survivor count and are marked so; the dose need not have been tolerated. Some entries hold several experiments; the results are listed from low to high.

Test system: CD2F1 mice, ip Colon 26 adenocarcinoma, median survival T/C
Experiment: NCI In Vivo Anticancer Drug Screen. Data for tumor model Colon 26 Adenocarcinoma (intraperitoneal) in CD2F1 (CDF1) mice
Conditions: T/C endpoint: median survival time, higher T/C = longer survival
Protocol: The antitumor activity of compounds was measured in mice bearing transplantable tumors. Survival or tumor size were measured and the results are expressed as the measurement made in the treated group (T) divided by the measurement made in the vehicle treated control group (C). The tumor model used in this assay is Colon 26 Adenocarcinoma (intraperitoneal) in CD2F1 (CDF1) mice

Row | Compound | T/C (dose: 6.25 mg/kg/injection, schedule: Q04DX003 (ip), vehicle: saline) | T/C (dose: 12.5 mg/kg/injection, schedule: Q04DX003 (ip), vehicle: saline) | T/C (dose: 25.0 mg/kg/injection, schedule: Q04DX003 (ip), vehicle: saline) | T/C (dose: 0.39 mg/kg/injection, schedule: Q04DX002 (ip), vehicle: Klucel (hydroxypropylcellulose) (HPC)) | T/C (dose: 0.78 mg/kg/injection, schedule: Q04DX002 (ip), vehicle: Klucel (hydroxypropylcellulose) (HPC), evaluated on day 60) | T/C (dose: 0.78 mg/kg/injection, schedule: Q04DX002 (ip), vehicle: Klucel (hydroxypropylcellulose) (HPC), evaluation day not shown) | T/C (dose: 1.56 mg/kg/injection, schedule: Q04DX002 (ip), vehicle: Klucel (hydroxypropylcellulose) (HPC), evaluated on day 60) | T/C (dose: 1.56 mg/kg/injection, schedule: Q04DX002 (ip), vehicle: Klucel (hydroxypropylcellulose) (HPC), evaluation day not shown) | T/C (dose: 3.13 mg/kg/injection, schedule: Q04DX002 (ip), vehicle: Klucel (hydroxypropylcellulose) (HPC), evaluated on day 60) | T/C (dose: 3.13 mg/kg/injection, schedule: Q04DX002 (ip), vehicle: Klucel (hydroxypropylcellulose) (HPC), evaluation day not shown) | T/C (dose: 6.25 mg/kg/injection, schedule: Q04DX002 (ip), vehicle: Klucel (hydroxypropylcellulose) (HPC))
1 | C[N+](CCCl)(CCCl)Cc1ccc([N+](=O)[O-])cc1 | 135 % of control [survivor count not shown] | 158 % of control [survivor count not shown] | 162 % of control [survivor count not shown] | – | – | – | – | – | – | – | –
2 | CC1=CC(=O)C(N(CCCl)CCCl)=CC1=O | – | – | – | 152 % of control | 188 % of control | 128 % of control [survivor count not shown] | 192 % of control | 183 % of control [survivor count not shown] | 188 % of control | 199 % of control [survivor count not shown] | 235 [survivor count not shown] and 239 % of control [survivor count not shown]
